Assay results published in the supplement of paper PMC9233669.
Variants at the floor of the assay are shown more often than the library holds them.

What was measured:
biotinyl-Val-oxazolone = test: self-aminoacylation, catalytic enhancement (BVO) (fold over background); higher = more active; k-Seq, kA / k0A0; sequences stand for … in GGGAAUGGAUCCACAUCUACGAAUUC…UUCACUGCAGACUUGACGAAGCUG
How it was run: (§1)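 Mutagenized RNA pools with a 21-nt variable region (0.43 μM) were reacted with each biotinyl-aminoacyl-oxazolone at 2–1250 μM for 90 minutes at room temperature, in 50 μL HEPES/NaCl/KCl/MgCl2/CaCl2 buffer containing 5% acetonitrile at pH 6.9–7.0. RNA captured on streptavidin was quantified by triplicate qPCR and by Illumina sequencing. The fraction reacted for each sequence was fit to a pseudo-first-order model with bootstrapping, and catalytic enhancement is the median kA divided by the uncatalyzed rate, taken as the low-activity peak of a bimodal Gaussian fit.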

biotinyl-Leu-oxazolone = test: self-aminoacylation, catalytic enhancement (BLO) (fold over background); higher = more active; k-Seq, kA / k0A0; sequences stand for … in GGGAAUGGAUCCACAUCUACGAAUUC…UUCACUGCAGACUUGACGAAGCUG
How it was run: as §1

biotinyl-Phe-oxazolone = test: self-aminoacylation, catalytic enhancement (BFO) (fold over background); higher = more active; k-Seq, kA / k0A0; sequences stand for … in GGGAAUGGAUCCACAUCUACGAAUUC…UUCACUGCAGACUUGACGAAGCUG
How it was run: as §1

biotinyl-Trp-oxazolone = test: self-aminoacylation, catalytic enhancement (BWO) (fold over background); higher = more active; k-Seq, kA / k0A0; sequences stand for … in GGGAAUGGAUCCACAUCUACGAAUUC…UUCACUGCAGACUUGACGAAGCUG
How it was run: as §1

biotinyl-Met-oxazolone = test: self-aminoacylation, catalytic enhancement (BMO) (fold over background); higher = more active; k-Seq, kA / k0A0; sequences stand for … in GGGAAUGGAUCCACAUCUACGAAUUC…UUCACUGCAGACUUGACGAAGCUG
How it was run: as §1

biotinyl-Ile-oxazolone = test: self-aminoacylation, catalytic enhancement (BIO) (fold over background); higher = more active; k-Seq, kA / k0A0; sequences stand for … in GGGAAUGGAUCCACAUCUACGAAUUC…UUCACUGCAGACUUGACGAAGCUG
How it was run: as §1

Sequence	self-aminoacylation (biotinyl-Val-oxazolone)	self-aminoacylation (biotinyl-Leu-oxazolone)	self-aminoacylation (biotinyl-Phe-oxazolone)	self-aminoacylation (biotinyl-Trp-oxazolone)	self-aminoacylation (biotinyl-Met-oxazolone)	self-aminoacylation (biotinyl-Ile-oxazolone)
CCAAACUUCAAGCAAUCUGUC [Fam1B.1 aminoacylation ribozyme variant]	0.528	0.284	0.7	0.307	0.377	0.468
CCACAAUUCAAGGAAUCGGUC [Fam1B.1 aminoacylation ribozyme variant]	1.16	1.05	1.17	1.14	1.27	1.01
CCACACUUCAAGCACUCGGUU [Fam1B.1 aminoacylation ribozyme variant]	1.99	1.37	1.15	1.41	1.35	1.39
CUCCUUCGAACAAUCGGUCUG [Fam1A.1 aminoacylation ribozyme variant]	0.86	0.762	0.935	0.731	0.754	0.685
AAGUUUGCUAAUAGGAGCAAG [Fam3.1 aminoacylation ribozyme variant]	0.878	0.714	0.799	0.632	0.677	0.722
CUUACCCGGGUCAUCGAGUGA [Fam2.1 aminoacylation ribozyme variant]	3.48	7.48	36.5	7.34	5.92	3.03
CCAGAAUUCAAGCAAUCGGUC [Fam1B.1 aminoacylation ribozyme variant]	1.6	2.3	2.26	1.81	1.65	1.91
AGGUUUGCUCAUAGUCGCAAG [Fam3.1 aminoacylation ribozyme variant]	1.5	1.95	2.95	2.45	1.68	1.85
GAGUUUGCUAAUAGUCGCAGG [Fam3.1 aminoacylation ribozyme variant]	1.75	2.11	6.69	3.34	1.9	1.77
CUACUUCAAACGACCGGUCUG [Fam1A.1 aminoacylation ribozyme variant]	0.74	0.621	0.832	0.229	0.698	0.601
AUUCACCUACGUCAACGGGUG [Fam2.2 aminoacylation ribozyme variant]	1.64	3.09	9.97	2.84	2.35	1.6
AAGUUUGCUAGUAGACGCAAG [Fam3.1 aminoacylation ribozyme variant]	0.983	0.986	1.46	0.658	0.871	0.726
CCACACUCCAAGCACUCGGUC [Fam1B.1 aminoacylation ribozyme variant]	1.24	0.768	0.642	0.831	1.32	1.35
AUUACCCUGGUAAUCGAGUGA [Fam2.1 aminoacylation ribozyme variant]	3.82	8.46	54.5	9.96	8.63	3.7
CUACUUCAAACAAUUGGUCCG [Fam1A.1 aminoacylation ribozyme variant]	0.728	0.872	0.524	1.01	0.854	0.958
CUACUUCAAAGAAUCGUUCUG [Fam1A.1 aminoacylation ribozyme variant]	0.648	0.579	0.728	0.482	0.694	0.632
AAGUUUACUAAUAGUCGCAAC [Fam3.1 aminoacylation ribozyme variant]	1.35	1.17	1.9	1.43	1.14	1.4
AUUACCCUGGUCAUCGAGUAU [Fam2.1 aminoacylation ribozyme variant]	9.24	23.6	97.7	24.4	26.9	8
AUUCACCUAGGUUAGCGGGUG [Fam2.2 aminoacylation ribozyme variant]	2.22	2.9	19.7	3.43	2.98	2.55
CCACACUUUAAGCAAUCUGUC [Fam1B.1 aminoacylation ribozyme variant]	0.53	0.397	0.54	0.383	0.365	0.37
AUACCUCAAACAAUCGGUCUG [Fam1A.1 aminoacylation ribozyme variant]	0.92	0.934	4.92	1.52	0.919	0.977
AUUCACCUAGGAUAUCGGGUG [Fam2.2 aminoacylation ribozyme variant]	3.64	7.35	44.1	5.47	6.65	3.31
CCACACUUAAAGCAAGCGGUC [Fam1B.1 aminoacylation ribozyme variant]	0.918	0.811	0.584	0.598	0.862	1.08
CCACACAUCAAGCAAUCGGUA [Fam1B.1 aminoacylation ribozyme variant]	1.45	1.12	0.672	0.43	1.3	1.13
CCACACUUCAAGAAACCGGUC [Fam1B.1 aminoacylation ribozyme variant]	0.824	1.17	0.875	0.931	0.798	0.998
CUACUGCAAACAAUAGGUCUG [Fam1A.1 aminoacylation ribozyme variant]	0.852	0.74	1.49	0.743	0.892	1.13

Sequence	self-aminoacylation (biotinyl-Val-oxazolone)	self-aminoacylation (biotinyl-Leu-oxazolone)	self-aminoacylation (biotinyl-Phe-oxazolone)	self-aminoacylation (biotinyl-Trp-oxazolone)	self-aminoacylation (biotinyl-Met-oxazolone)	self-aminoacylation (biotinyl-Ile-oxazolone)
AUUACCCUGGUCAUCGUGUGG [Fam2.1 aminoacylation ribozyme variant]	0.947	0.851	2.9	0.556	0.727	0.742
AUUCACCUAGUUCAGCGGGUG [Fam2.2 aminoacylation ribozyme variant]	2.28	3.34	15.9	2.62	2.76	2.07
AAUUUUGCUAAUAGUCGCACG [Fam3.1 aminoacylation ribozyme variant]	1.16	1.6	1.88	1.17	1.87	1.66
CCACAUUUCAAGCCAUCGGUC [Fam1B.1 aminoacylation ribozyme variant]	1.42	1.35	1.02	1.18	1.75	1.52
CUACUUCAAAAAAUCGAUCUG [Fam1A.1 aminoacylation ribozyme variant]	0.585	0.6	1.46	0.604	0.601	0.663
AUUCAUCUAUGUCAUCGGGUG [Fam2.2 aminoacylation ribozyme variant]	3.8	8.74	50.7	6.27	6.63	4.09
CUAGUUCAAACAAUUGGUCUG [Fam1A.1 aminoacylation ribozyme variant]	0.902	0.89	1.01	0.633	1.09	1.08
CCACAUUUCAAGCAAUCUGUC [Fam1B.1 aminoacylation ribozyme variant]	0.708	0.523	1.03	0.433	0.528	0.603
AUACUUCAAACAAUCGAUCUG [Fam1A.1 aminoacylation ribozyme variant]	0.59	0.485	0.915	0.648	0.535	0.684
CUACAUCAAACAAUUGGUCUG [Fam1A.1 aminoacylation ribozyme variant]	1.12	1.37	1.07	0.87	1.33	1.24
AAGUUUUCUAACAGUCGCAAG [Fam3.1 aminoacylation ribozyme variant]	1.51	1.72	3.07	1.66	1.48	2.04
AAGUUUGCUAAUAGUCGAAAC [Fam3.1 aminoacylation ribozyme variant]	0.886	0.934	1.11	0.92	0.983	0.908
AUACUUCAAACGAUCGGUCUG [Fam1A.1 aminoacylation ribozyme variant]	0.929	1.02	0.717	1.23	0.908	0.836
CUAUUUCAAACUAUCGGUCUG [Fam1A.1 aminoacylation ribozyme variant]	1.02	0.866	1.31	0.994	1.04	1.23
AAGUUUGCUAAUAGUCCCAGG [Fam3.1 aminoacylation ribozyme variant]	1.3	1.26	1.15	1.4	1.12	1.14
AAGUUUGCAAAUAGUCGCAGG [Fam3.1 aminoacylation ribozyme variant]	1.31	1.53	1.86	1.38	1.43	1.51
CCGCACUUCAAGCAAUCUGUC [Fam1B.1 aminoacylation ribozyme variant]	0.414	0.35	0.915	0.546	0.49	0.437
CCAUACUUCAAGCAAUCGGAC [Fam1B.1 aminoacylation ribozyme variant]	1.06	0.856	1.21	0.768	1.17	1.01
ACUCACCUGGGUCAUCGGGUG [Fam2.2 aminoacylation ribozyme variant]	4.66	5.61	38.9	8.05	4.83	4.86
AUGCAGCUAGGUCAUCGGGUG [Fam2.2 aminoacylation ribozyme variant]	3.61	4.37	24.9	3.92	3.73	2.95
CUACUUCAAACAAUCGCUUUG [Fam1A.1 aminoacylation ribozyme variant]	1.03	0.853	0.838	0.979	0.808	1.11
AAGAUUGCUAAUAGUCGCAAU [Fam3.1 aminoacylation ribozyme variant]	1.41	1.37	2.37	1.14	1.85	1.54
CCACACUUCCAGCUAUCGGUC [Fam1B.1 aminoacylation ribozyme variant]	1.63	1.22	0.712	0.989	1.01	1.38
CUAUUUCAAACAAUGGGUCUG [Fam1A.1 aminoacylation ribozyme variant]	0.81	0.863	0.641	0.802	0.836	0.924
CUAUUUCAAAUAAUCGGUCUG [Fam1A.1 aminoacylation ribozyme variant]	0.816	0.814	3.5	2.2	0.849	0.912
